Data source: PubChem BioAssay AID1259424 (University of Nebraska Medical Center, 2018)
Shown is a random part of about 14,000 reagents. 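Higher correlation or smaller distance means closer resemblance to KSR1 loss; control wells, including KSR1 knockdowns, recur on many plates.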 Not all columns of the deposit are shown. No sequences are given here. Not stated in the record: the time to read-out.

Screen: 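Seek colon cancer survival genes behaving like KSR1, using a six-gene signature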 (primary screen)
System: human HCT116 colon cancer cells
Knock-down reagent: siRNA pool against human genes, 50 nM
Read-out: 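Log2 levels of six mRNAs (branched-DNA multiplex), adjusted by two reference genes and the non-targeting median, then scored against the average KSR1 knockdown pattern as Pearson r and euclidean distance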
Scale: mean correlation with KSR1 profile and KSR1 correlation: higher = expression change more like KSR1 knockdown; mean distance from KSR1 profile: higher = expression change less like KSR1 knockdown

no.	gene symbol	mean correlation with KSR1 profile	mean distance from KSR1 profile	KSR1 correlation, replicate 1
1	ZMYM5	0.504	1.61	0.291
2	KATNA1	0.0596	2.37	0.00653
3	BRIP1	-0.293	1.93	-0.409
4	MLKL	0.17	2.32	0.182
5	TSPAN32	-0.515	1.73	-0.385
6	PPA2	-0.335	1.65	-0.294
7	ACSBG2	0.0364	2.68	-0.0346
8	CLASP1	0.0332	3.56	-0.0306
9	BAMBI	-0.0928	2.26	0.299
10	LCE2B	0.474	2.59	-0.0104
11	EPHA5	0.604	1.14	0.427
12	FADS2	0.42	1.62	0.402
13	CHCHD3	0.15	2.14	0.248
14	CFAP91	0.261	1.35	-0.138
15	ACTG1	-0.586	2.07	-0.308
16	ITGA11	-0.191	2.9	-0.247
17	RBBP4	-0.351	2.34	-0.704
18	IER3IP1	-0.0913	2.43	-0.0703
19	NR1I3	0.199	1.41	-0.000309
20	SMURF2	-0.527	1.77	-0.753
21	GABRA5	0.203	2.27	0.304
22	RGS8	-0.422	3.57	-0.352
23	MANEA	0.305	2.39	0.282

11 entries from above, sorted by “mean distance from KSR1 profile”, descending.
gene symbol	mean correlation with KSR1 profile	mean distance from KSR1 profile	KSR1 correlation, replicate 1
RGS8	-0.422	3.57	-0.352
ITGA11	-0.191	2.9	-0.247
IER3IP1	-0.0913	2.43	-0.0703
MANEA	0.305	2.39	0.282
RBBP4	-0.351	2.34	-0.704
GABRA5	0.203	2.27	0.304
CHCHD3	0.15	2.14	0.248
ACTG1	-0.586	2.07	-0.308
SMURF2	-0.527	1.77	-0.753
NR1I3	0.199	1.41	-0.000309
CFAP91	0.261	1.35	-0.138

Additional results:
no.	gene symbol	mean correlation with KSR1 profile	mean distance from KSR1 profile	KSR1 correlation, replicate 1
24	SPATS2	-0.246	2.61	-0.275
25	DYNLT1	-0.0387	2.1	-0.007
26	MNS1	0.339	3.04	0.206
27	DIMT1	0.372	2.09	0.258
28	BORA	0.562	2.64	0.549
29	GPR83	0.633	1.99	0.615
30	MT1F	-0.326	4.78	-0.24
31	CCL7	-0.258	3.19	-0.0999
32	VPS13C	0.0266	1.48	0.0209
33	NCALD	0.429	2.35	0.483
34	GRPR	0.663	1.33	0.61
35	PDZRN4	-0.865	1.7	-0.726
36	AP2M1	-0.323	4.51	-0.445
37	KITLG	0.0191	1.08	-0.0141
38	EEF1AKMT3	-0.521	3.95	-0.405
39	RLF	0.169	2.63	0.33
40	HTR2B	-0.232	1.34	-0.365
41	TMEM8B	-0.0406	3.73	0.165
42	SNRPD1	0.189	1.81	0.345
43	PHF1	0.585	1.37	0.525
44	HLX	-0.171	1.58	0.0105
45	WIPI1	-0.603	4.78	-0.578
46	ACER3	-0.708	2.22	-0.825
47	SUCLA2	-0.595	3.24	-0.426
48	PRKAR1B	-0.345	1.7	-0.136
49	NAGA	-0.417	2.76	-0.787
50	IFNA8	-0.181	1.67	-0.22
51	AFAP1	0.544	0.881	0.718
52	ACSS1	0.0491	2.78	0.105
53	PRKAR2A	0.448	1.49	0.727
54	GLG1	-0.21	1.79	-0.221
55	PPP2R3B	-0.235	2.28	-0.183
56	CCN6	-0.345	2.1	-0.135
57	AKR1C8	-0.0604	1.94	0.292
58	POLR3G	-0.348	2.93	-0.234
59	ZFYVE21	0.786	1.61	0.719
60	STON1	-0.382	2.13	-0.184
61	GPSM3	0.609	2.25	0.357
62	RAPGEF2	-0.543	2.32	-0.545
63	APMAP	0.655	1.6	0.595
